The supplement of paper PMC10849652
Some of the results follow.

Protein sequences, listed by entry. Tags and fused reporters are not part of them. Lines headed by an entry give the natural chain unless they say otherwise; changes in a name come on top.
UniProt O95630, whole entry, looked up: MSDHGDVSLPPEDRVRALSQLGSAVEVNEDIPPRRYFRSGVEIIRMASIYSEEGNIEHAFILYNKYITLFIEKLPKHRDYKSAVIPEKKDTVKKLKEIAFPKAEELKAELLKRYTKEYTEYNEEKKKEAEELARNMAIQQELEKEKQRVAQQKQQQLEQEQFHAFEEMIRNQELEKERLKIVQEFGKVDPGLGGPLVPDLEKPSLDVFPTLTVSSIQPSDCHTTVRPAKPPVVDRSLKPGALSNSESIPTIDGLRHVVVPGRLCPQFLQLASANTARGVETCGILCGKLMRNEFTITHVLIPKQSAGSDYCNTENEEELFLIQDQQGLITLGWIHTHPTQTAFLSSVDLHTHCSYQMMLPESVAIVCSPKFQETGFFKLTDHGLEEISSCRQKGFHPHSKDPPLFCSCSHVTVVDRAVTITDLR
UniProt P35270: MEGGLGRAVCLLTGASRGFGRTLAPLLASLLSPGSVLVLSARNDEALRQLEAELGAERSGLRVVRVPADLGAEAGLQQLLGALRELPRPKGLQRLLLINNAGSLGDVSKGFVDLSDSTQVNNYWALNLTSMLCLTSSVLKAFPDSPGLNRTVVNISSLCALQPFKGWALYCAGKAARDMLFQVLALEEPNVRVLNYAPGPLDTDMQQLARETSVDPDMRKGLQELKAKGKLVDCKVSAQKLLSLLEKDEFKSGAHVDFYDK
UniProt Q01130: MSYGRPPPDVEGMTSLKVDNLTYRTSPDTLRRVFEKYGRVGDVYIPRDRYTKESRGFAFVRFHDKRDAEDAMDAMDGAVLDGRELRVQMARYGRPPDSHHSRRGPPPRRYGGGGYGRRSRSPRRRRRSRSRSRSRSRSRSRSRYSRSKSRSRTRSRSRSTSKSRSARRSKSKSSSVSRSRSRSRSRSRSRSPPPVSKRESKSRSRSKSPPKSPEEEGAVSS
UniProt Q15831: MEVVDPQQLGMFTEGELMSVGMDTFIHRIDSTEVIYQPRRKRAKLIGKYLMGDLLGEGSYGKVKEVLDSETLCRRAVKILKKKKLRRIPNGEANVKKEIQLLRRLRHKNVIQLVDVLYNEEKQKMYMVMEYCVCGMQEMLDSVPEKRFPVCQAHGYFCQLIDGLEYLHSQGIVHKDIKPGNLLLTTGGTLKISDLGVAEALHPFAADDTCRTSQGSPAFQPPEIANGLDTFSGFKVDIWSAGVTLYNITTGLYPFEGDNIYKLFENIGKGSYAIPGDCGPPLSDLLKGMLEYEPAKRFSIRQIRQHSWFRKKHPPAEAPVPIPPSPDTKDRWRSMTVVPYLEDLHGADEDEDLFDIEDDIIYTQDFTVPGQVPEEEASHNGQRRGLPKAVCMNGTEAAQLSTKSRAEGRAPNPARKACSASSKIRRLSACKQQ
UniProt P61011: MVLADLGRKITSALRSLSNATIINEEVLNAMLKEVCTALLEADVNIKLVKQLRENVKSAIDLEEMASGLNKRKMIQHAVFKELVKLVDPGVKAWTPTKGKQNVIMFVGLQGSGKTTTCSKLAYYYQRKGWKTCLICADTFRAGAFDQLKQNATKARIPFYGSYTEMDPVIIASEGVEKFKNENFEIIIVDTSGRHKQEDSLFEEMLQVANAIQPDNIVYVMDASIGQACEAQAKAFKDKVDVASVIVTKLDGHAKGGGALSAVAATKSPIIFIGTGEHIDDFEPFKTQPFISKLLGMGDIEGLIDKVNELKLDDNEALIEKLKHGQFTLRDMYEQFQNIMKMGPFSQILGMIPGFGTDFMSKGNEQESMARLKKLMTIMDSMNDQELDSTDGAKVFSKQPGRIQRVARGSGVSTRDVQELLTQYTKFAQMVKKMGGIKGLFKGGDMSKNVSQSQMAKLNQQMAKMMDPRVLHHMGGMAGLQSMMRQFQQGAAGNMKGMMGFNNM
UniProt Q8N1F8: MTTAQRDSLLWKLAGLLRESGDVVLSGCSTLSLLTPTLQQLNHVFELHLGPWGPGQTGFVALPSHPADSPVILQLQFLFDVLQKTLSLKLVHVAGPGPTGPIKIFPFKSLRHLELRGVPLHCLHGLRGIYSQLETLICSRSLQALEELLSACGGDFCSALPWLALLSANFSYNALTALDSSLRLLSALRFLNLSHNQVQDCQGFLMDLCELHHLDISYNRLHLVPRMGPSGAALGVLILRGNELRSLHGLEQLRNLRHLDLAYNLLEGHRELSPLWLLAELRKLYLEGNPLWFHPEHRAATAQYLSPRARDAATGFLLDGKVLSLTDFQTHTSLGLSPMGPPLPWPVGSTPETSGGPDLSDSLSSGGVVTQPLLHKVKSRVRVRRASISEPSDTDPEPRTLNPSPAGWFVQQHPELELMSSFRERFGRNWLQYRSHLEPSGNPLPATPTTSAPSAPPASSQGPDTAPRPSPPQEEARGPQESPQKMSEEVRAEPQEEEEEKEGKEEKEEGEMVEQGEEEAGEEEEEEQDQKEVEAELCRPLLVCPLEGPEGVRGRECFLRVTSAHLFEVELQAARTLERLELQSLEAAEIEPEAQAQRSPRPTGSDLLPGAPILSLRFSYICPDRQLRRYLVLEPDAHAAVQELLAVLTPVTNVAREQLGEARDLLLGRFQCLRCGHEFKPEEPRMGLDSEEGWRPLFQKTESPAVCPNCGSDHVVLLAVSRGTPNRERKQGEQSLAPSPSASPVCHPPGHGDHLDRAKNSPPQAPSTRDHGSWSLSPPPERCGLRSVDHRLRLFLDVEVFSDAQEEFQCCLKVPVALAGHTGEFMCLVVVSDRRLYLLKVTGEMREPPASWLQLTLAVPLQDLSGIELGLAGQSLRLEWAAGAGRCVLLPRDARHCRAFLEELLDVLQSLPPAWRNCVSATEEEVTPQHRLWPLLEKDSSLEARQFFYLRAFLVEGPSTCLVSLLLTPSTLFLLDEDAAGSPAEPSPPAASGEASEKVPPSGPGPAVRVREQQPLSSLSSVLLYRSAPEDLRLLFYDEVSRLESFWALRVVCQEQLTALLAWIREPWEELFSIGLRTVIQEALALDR
UniProt Q9H254, whole entry, looked up: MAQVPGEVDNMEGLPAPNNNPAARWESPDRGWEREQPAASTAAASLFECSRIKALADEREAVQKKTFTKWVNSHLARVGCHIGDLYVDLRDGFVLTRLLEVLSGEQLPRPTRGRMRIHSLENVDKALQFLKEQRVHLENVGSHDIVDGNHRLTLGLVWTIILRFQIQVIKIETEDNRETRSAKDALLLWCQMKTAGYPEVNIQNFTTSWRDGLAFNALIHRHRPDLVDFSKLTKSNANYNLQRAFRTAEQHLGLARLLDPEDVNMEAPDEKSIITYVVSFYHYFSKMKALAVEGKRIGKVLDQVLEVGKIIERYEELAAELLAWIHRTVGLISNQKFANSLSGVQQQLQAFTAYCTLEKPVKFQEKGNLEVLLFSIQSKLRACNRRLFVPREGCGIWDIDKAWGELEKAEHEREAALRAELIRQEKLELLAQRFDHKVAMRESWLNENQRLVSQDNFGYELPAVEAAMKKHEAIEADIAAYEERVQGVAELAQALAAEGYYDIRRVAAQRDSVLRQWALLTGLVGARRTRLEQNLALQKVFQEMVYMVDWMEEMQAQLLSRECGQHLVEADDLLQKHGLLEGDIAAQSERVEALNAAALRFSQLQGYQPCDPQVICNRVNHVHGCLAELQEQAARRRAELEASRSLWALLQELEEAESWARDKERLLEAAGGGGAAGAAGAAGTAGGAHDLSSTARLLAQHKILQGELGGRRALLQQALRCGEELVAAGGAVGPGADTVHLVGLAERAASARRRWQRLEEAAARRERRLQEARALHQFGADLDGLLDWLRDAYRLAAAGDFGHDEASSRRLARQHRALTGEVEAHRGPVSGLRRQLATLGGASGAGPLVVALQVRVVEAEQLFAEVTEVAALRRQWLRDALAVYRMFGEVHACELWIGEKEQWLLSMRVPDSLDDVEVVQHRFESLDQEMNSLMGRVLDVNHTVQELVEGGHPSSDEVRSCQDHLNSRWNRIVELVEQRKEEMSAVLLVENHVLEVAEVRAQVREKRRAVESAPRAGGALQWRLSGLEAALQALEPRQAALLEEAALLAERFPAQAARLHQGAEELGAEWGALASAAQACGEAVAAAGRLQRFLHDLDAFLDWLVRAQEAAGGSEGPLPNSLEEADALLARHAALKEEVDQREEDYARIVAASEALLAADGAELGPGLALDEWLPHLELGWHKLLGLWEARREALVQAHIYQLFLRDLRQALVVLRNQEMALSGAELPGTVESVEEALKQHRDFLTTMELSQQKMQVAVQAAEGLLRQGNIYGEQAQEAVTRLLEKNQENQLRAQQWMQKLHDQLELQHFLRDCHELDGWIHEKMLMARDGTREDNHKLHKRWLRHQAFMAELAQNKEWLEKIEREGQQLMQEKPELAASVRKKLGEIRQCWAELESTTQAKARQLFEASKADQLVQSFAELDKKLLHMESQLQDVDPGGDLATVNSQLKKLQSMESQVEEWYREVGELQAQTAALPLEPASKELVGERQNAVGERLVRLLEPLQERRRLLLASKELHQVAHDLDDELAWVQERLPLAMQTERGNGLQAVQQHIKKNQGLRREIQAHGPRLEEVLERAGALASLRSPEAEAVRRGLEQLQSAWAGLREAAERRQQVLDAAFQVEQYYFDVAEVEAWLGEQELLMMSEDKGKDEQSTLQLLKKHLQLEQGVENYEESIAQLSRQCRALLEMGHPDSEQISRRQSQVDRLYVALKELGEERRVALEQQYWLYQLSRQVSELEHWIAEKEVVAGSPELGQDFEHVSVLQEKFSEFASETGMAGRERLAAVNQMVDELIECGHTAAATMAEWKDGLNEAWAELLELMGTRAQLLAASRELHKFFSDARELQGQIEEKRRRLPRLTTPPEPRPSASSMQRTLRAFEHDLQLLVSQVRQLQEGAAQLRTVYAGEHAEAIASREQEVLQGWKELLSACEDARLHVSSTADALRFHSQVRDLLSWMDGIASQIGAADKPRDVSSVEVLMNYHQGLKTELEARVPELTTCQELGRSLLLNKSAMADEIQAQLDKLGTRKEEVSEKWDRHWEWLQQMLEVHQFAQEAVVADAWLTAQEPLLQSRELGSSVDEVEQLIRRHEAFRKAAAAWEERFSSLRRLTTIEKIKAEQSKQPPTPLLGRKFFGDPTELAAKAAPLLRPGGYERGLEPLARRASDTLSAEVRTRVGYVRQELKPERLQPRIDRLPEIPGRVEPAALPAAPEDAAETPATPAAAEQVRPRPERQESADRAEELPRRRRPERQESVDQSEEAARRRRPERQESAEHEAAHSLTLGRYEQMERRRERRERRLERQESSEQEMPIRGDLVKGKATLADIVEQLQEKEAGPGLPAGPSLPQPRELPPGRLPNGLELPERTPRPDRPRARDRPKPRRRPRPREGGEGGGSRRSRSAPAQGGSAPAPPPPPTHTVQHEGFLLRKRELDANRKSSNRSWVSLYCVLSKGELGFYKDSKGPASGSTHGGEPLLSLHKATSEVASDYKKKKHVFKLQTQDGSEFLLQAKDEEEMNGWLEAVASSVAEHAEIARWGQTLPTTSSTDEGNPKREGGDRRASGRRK
UniProt Q9H2V7: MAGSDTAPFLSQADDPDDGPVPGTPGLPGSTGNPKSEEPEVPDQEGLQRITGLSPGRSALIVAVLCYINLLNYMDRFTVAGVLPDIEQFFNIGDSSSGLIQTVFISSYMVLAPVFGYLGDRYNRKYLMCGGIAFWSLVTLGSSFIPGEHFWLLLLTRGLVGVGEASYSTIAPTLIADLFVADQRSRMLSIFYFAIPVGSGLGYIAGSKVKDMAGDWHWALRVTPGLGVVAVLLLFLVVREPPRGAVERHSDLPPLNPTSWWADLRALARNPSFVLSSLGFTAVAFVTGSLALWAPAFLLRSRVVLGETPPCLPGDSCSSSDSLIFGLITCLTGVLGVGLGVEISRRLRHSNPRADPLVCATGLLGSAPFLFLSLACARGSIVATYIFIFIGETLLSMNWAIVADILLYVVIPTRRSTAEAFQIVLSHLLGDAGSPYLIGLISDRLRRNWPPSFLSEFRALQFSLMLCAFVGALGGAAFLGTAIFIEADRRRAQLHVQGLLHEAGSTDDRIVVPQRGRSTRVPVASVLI
UniProt Q9NUL3: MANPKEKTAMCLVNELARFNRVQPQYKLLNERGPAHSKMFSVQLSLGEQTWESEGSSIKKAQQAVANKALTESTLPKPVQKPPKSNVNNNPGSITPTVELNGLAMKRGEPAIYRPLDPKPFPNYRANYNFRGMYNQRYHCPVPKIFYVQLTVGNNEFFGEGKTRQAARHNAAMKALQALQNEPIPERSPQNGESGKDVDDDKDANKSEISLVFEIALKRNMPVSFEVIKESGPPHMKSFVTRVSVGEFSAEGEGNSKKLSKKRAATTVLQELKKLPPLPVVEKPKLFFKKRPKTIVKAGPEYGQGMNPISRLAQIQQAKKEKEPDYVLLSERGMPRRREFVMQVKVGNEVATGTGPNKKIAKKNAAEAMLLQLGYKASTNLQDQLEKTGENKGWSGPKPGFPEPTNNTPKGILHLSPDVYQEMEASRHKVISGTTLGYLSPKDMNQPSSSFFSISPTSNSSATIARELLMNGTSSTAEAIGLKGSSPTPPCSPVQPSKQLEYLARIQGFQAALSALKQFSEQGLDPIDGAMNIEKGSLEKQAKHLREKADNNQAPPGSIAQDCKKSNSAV

Key:
Assay in all cases: log2 fold change, soluble protein after heating vs DMSO (PISA); higher = thermal stabilisation; K562 cells, 10 uM, 30 min; active = over 0.2 and 3.5 SD of the protein, either way, in both replicates (recomputed)
erlotinib = compound: C#Cc1cccc(Nc2ncnc3cc(OCCOC)c(OCCOC)cc23)c1 [erlotinib]
Outline: (§1)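 Quantification of soluble protein used TMTpro 16plex LC-MS/MS, with channel sums equalised. Samples were the supernatant after 21,000xg for 90 min of pooled aliquots from K562 cells (2×10^6 cells/mL) treated with 10 μM compound for 30 min, heated for 3 min over 48°C-58°C, and extracted in PBS with 0.5% NP-40 at 4°C. Values, from duplicates, describe thermal stability against control samples on a log2 fold-change scale.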

[1] = compound: C/C(=N\NC(=O)C1=CC(=CC=C1)S(=O)(=O)N2CCOCC2)/C3=C(C=CC(=C3)Cl)O
Outline: as §1

[2] = compound: C1=CC(=C(C=C1Cl)C2=NC3=NC=CN=C3C(=N2)NC4=CC=NC=C4)F
Outline: as §1

[3] = compound: C1=CC(=CC=C1C2=NC3=C(N2)C=C(C=C3)C(=O)N)OC4=CC=C(C=C4)Cl
Outline: as §1

[4] = compound: C1=CC2=C(C=CC(=C2)/C=C\3/C(=O)NC(=NCC4=CC=CS4)S3)N=C1
Outline: as §1

[5] = compound: C1=CC2=NC=CN=C2C=C1/C=C/3\C(=O)NC(=O)S3
Outline: as §1

[6] = compound: C1=CC=C(C=C1)C2=NC(=C(N2)C3=CC=NC=C3)C4=CC(=C(C=C4)Cl)O
Outline: as §1

[7] = compound: C1=CC=C2C(=C1)C3=NNC4=CC=CC(=C43)C2=O
Outline: as §1

[8] = compound: C1CCN(C1)C(=O)NC2=CC=CC(=C2)NC3=NC=C(C(=N3)NCCC4=CN=CN4)Br
Outline: as §1

[9] = compound: C1CN(CCC1(CC2=CC=C(C=C2)Cl)N)C3=NC=NC4=C3C=CN4
Outline: as §1

Measured: log2 fold change

SSR1 (UniProt P43307)
inactive: erlotinib -0.028 | [1] 0.022 | [2] 0.018 | [3] -0.001 | [4] 0.023 | [5] 0.02 | [6] -0.029 | [7] -0.01 | [8] 0.016 | [9] 0.013

SPART (UniProt Q8N0X7)
inactive: erlotinib 0.024 | [1] 0.008 | [2] 0.057 | [3] 0.008 | [4] 0.07 | [5] 0.002 | [6] -0.008 | [7] -0.014 | [8] -0.033 | [9] -0.055

STK26 (UniProt Q9P289)
inactive: erlotinib 0.058 | [1] -0.014 | [2] 0.195 | [3] -0.014 | [4] -0.008 | [5] 0.124 | [6] -0.015 | [7] -0.08 | [8] 0.023 | [9] 0.02

STAMBP (UniProt O95630)
inactive: erlotinib -0.001 | [1] 0.105 | [2] -0.015 | [3] -0.071 | [4] 0.006 | [5] -0.029 | [6] 0.089 | [7] 0.033 | [8] 0.005 | [9] -0.148

SPR (UniProt P35270)
inactive: erlotinib 0.018 | [1] -0.089 | [2] -0.01 | [3] 0.005 | [4] 0.115 | [5] 0.016 | [7] 0.096 | [8] 0.02 | [9] 0.034
active: [6] 0.732

SRRM2 (UniProt Q9UQ35)
inactive: erlotinib 0.067 | [1] 0.095 | [2] -0.136 | [3] 0.07 | [4] -0.123 | [5] 0.014 | [6] -0.044 | [7] -0.073 | [8] -0.061 | [9] -0.128

SRPK2 isoform 2 (UniProt P78362)
inactive: erlotinib -0.209 | [1] -0.125 | [2] -0.549 | [3] 0.126 | [4] -0.052 | [5] 0.007 | [6] -0.054 | [7] 0.049 | [8] 0.038 | [9] -0.186

SRP14 (UniProt P37108)
inactive: erlotinib -0.077 | [1] -0.291 | [2] -0.471 | [3] 0.002 | [4] -0.103 | [5] -0.008 | [6] -0.042 | [7] -0.036 | [8] 0.078 | [9] -0.071

SRSF2 (UniProt Q01130)
inactive: erlotinib -0.003 | [1] -0.034 | [2] -0.13 | [3] 0.02 | [4] -0.029 | [5] -0.032 | [6] -0.038 | [7] -0.032 | [8] 0.041 | [9] -0.027

STK11 (UniProt Q15831)
inactive: erlotinib -0.103 | [1] -0.002 | [2] -0.022 | [3] 0.099 | [4] 0.034 | [5] 0.029 | [6] -0.06 | [7] -0.013 | [8] 0.031 | [9] 0.037

SRSF10 (UniProt O75494)
active: [2] -0.701
inactive: erlotinib 0.004 | [1] -0.284 | [3] 0.035 | [4] -0.044 | [5] 0.048 | [6] -0.148 | [7] -0.022 | [8] 0.063 | [9] -0.135

SRSF1 (UniProt Q07955)
inactive: erlotinib -0.042 | [1] -0.07 | [2] -0.337 | [3] 0.067 | [4] -0.043 | [5] -0.007 | [6] -0.132 | [7] -0.011 | [8] 0.022 | [9] -0.101

STARD9 (UniProt Q9P2P6)
inactive: erlotinib 0.026 | [1] 0.117 | [2] -0.089 | [3] 0.119 | [4] 0.06 | [5] 0 | [6] -0.131 | [7] 0.005 | [8] -0.003 | [9] -0.099

Quoted at random: two entries already listed, in no set order.
SRSF1 (UniProt Q07955)
inactive: erlotinib -0.042 | [1] -0.07 | [2] -0.337 | [3] 0.067 | [4] -0.043 | [5] -0.007 | [6] -0.132 | [7] -0.011 | [8] 0.022 | [9] -0.101

SRSF10 (UniProt O75494)
active: [2] -0.701
inactive: erlotinib 0.004 | [1] -0.284 | [3] 0.035 | [4] -0.044 | [5] 0.048 | [6] -0.148 | [7] -0.022 | [8] 0.063 | [9] -0.135

The listing continues:

ST7 (UniProt Q9NRC1)
inactive: erlotinib 0.094 | [1] 0.022 | [2] 0.017 | [3] -0.009 | [4] -0.009 | [5] 0.004 | [6] -0.065 | [7] -0.017 | [8] -0.057 | [9] -0.039

SRP54 (UniProt P61011)
inactive: erlotinib 0.036 | [1] 0.072 | [2] 0.03 | [3] -0.023 | [4] 0.037 | [5] 0.035 | [6] 0.009 | [7] 0.03 | [8] -0.024 | [9] -0.023

SPTB isoform 2 (UniProt P11277)
inactive: erlotinib 0.063 | [1] 0.116 | [2] -0.158 | [3] 0 | [4] 0.129 | [5] -0.269 | [6] -0.024 | [7] -0.015 | [8] -0.136 | [9] -0.22

SPTBN2 (UniProt O15020)
inactive: erlotinib 0.049 | [1] 0.14 | [2] -0.007 | [3] -0.065 | [4] 0.041 | [5] -0.026 | [6] 0.033 | [7] 0.067 | [8] -0.029 | [9] -0.12

STK11IP (UniProt Q8N1F8)
inactive: erlotinib 0.025 | [1] 0.152 | [2] -0.079 | [3] -0.243 | [4] 0.094 | [5] 0.006 | [7] -0.062 | [8] 0.042 | [9] -0.01

SSR4 (UniProt P51571)
inactive: erlotinib -0.016 | [1] 0.055 | [2] 0.041 | [3] 0.051 | [4] 0.059 | [5] 0.007 | [6] -0.031 | [7] -0.002 | [8] 0 | [9] -0.025

SPTBN4 (UniProt Q9H254)
inactive: erlotinib 0.29 | [1] 0 | [2] -0.045 | [3] 0.078 | [4] 0.066 | [5] -0.027 | [6] 0.035 | [7] 0.061 | [8] 0.066 | [9] -0.05

STEAP3 isoform 2 (UniProt Q658P3)
inactive: erlotinib 0.053 | [1] 0.038 | [2] 0.017 | [3] -0.019 | [4] 0.053 | [5] 0.02 | [6] -0.008 | [7] 0.004 | [8] -0.036 | [9] 0.032

STIM1 (UniProt Q13586)
inactive: erlotinib -0.015 | [1] 0.01 | [2] 0.043 | [3] 0.014 | [4] 0.039 | [5] -0.007 | [6] -0.025 | [7] -0.067 | [8] -0.003 | [9] 0.016

SPCS1, A0A5F9YFS9
inactive: erlotinib -0.043 | [1] 0.073 | [2] -0.149 | [3] 0.059 | [4] 0.095 | [5] 0.092 | [6] 0.001 | [7] -0.007 | [8] 0.001 | [9] -0.076

STAT1 (UniProt P42224)
inactive: erlotinib -0.045 | [1] -0.067 | [2] -0.276 | [3] 0.096 | [4] -0.015 | [5] 0.035 | [6] -0.042 | [7] -0.004 | [8] 0.04 | [9] -0.084

SPNS1 (UniProt Q9H2V7)
inactive: erlotinib 0.036 | [1] -0.001 | [2] 0.013 | [3] 0.065 | [4] 0.055 | [5] 0.065 | [6] 0.039 | [7] 0.018 | [8] -0.015 | [9] 0.026

STAU1 (UniProt O95793)
inactive: erlotinib -0.183 | [1] -0.22 | [2] -0.728 | [3] 0.016 | [4] -0.119 | [5] -0.013 | [6] -0.116 | [7] 0.007 | [8] 0.119 | [9] -0.188

SRRD (UniProt Q9UH36)
inactive: erlotinib -0.032 | [1] -0.468 | [2] -0.008 | [3] -0.025 | [4] 0.133 | [5] 0.356 | [7] 0.072 | [8] 0.083 | [9] 0.084

STAU2 (UniProt Q9NUL3)
inactive: erlotinib 0.064 | [1] -0.106 | [2] -0.021 | [3] -0.033 | [4] 0.007 | [5] -0.218 | [7] -0.051 | [8] 0.078 | [9] -0.001
